Results as given in PubChem BioAssay AID1487 (National Center for Advancing Translational Sciences (NCATS), 2009).
This is one part of the list. Shown are side measurements of this screen, not its main read-out; they come without a call. Compounds called inactive in the main read-out are mostly missing here. Words in brackets tell the shape of the fitted curve; partial curves, single points and poor fits give uncertain potencies.

Experiment: qHTS Assay for Modulators of Lamin A Splicing
Settings: HeLa LMNA splicing GFP/RFP minigene ratio, 48 h
Summary of the method: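 S3 HeLa stable clones carrying a lamin A-EGFP splicing minigene plus DsRed2 were seeded at 600 cells/well in Opti-MEM with 2% FBS, pin-dosed and incubated 48 h at 37°C. Acumen cytometry (488 nm) gave the GFP/RFP total-intensity ratio.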

[1] = measured here: GFP splicing reporter channel
[2] = measured here: RFP viability control channel

COc1cc(C(=O)NCCC(C)C)ccc1OCc1ccc(Cl)cc1Cl
AC50 [1]: 17.8 µM [rising, single point]
AC50 [2]: 35.5 µM [rising, partial curve]

CC(=O)c1ccc(Sc2nnnn2-c2ccccc2)c([N+](=O)[O-])c1
AC50 [1]: 22.4 µM [falling, single point]

CN(C)c1ccc(-c2ccc3ncnc(-n4ccnc4)c3c2)cc1
AC50 [1]: 2.24 µM [falling, full curve]
AC50 [2]: 2.82 µM [falling, full curve]

O=C(NC12CC3CC(CC(C3)C1)C2)c1ccc(-c2ccc(Cl)cc2)o1
AC50 [1]: 12.6 µM [rising, partial curve]
AC50 [2]: 22.4 µM [rising, partial curve]

COC(=O)CSc1nnc(-c2ccncc2)n1N
AC50 [2]: 0.0562 µM [falling, full curve, poor fit]

Cc1ccc([N+](=O)[O-])cc1S(=O)(=O)N1CCn2cccc2C1c1ccc(F)c(F)c1 (stereo not drawn)
AC50 [1]: 14.1 µM [rising, partial curve, poor fit]

CCCOc1ccc(NC(=O)CC2C(=O)N(Cc3ccccc3)C(=S)N2Cc2cccs2)cc1 (stereo not drawn)
AC50 [1]: 10 µM [rising, single point]
AC50 [2]: 22.4 µM [rising, single point]

CC(=O)c1cccc(NC(=O)c2ccc3nc(C(C)C)oc3c2)c1
AC50 [1]: 17.8 µM [falling, partial curve, poor fit]

NC(=O)C1(N2CCCCC2)CCN(CC(=O)Nc2cc(Cl)ccc2Cl)CC1
AC50 [2]: 35.5 µM [rising, single point]

Cc1cccc2cc3c(N)c(C(=O)N4CCCc5ccccc54)sc3nc12
AC50 [1]: 35.5 µM [falling, single point]

O=C(CN1C(=O)S/C(=C\c2ccccc2)C1=O)NNC(=O)c1ccccc1O
AC50 [1]: 35.5 µM [rising, single point]

Cc1ccc2cccc(OCC(=O)N3CC(C)CC(C)C3)c2n1 (stereo not drawn)
AC50 [2]: 0.355 µM [rising, full curve]

COC(=O)CSc1nc(N)c2c3c(sc2n1)C(c1ccccc1)SC(c1ccccc1)C3 (stereo not drawn)
AC50 [1]: 28.2 µM [falling, single point]
AC50 [2]: 31.6 µM [falling, single point]

COc1ccc(/C=C/C(=O)c2ccc(O)cc2)cc1CN1CCOCC1
AC50 [2]: 10 µM [rising, partial curve]

Cc1cc(C)c2nc(C(F)(F)F)nc(NCCCN3CCOCC3)c2c1
AC50 [1]: 35.5 µM [rising, single point]
AC50 [2]: 31.6 µM [rising, single point]

NS(=O)(=O)c1ccc(CCNC(=O)COC(=O)CCc2ccccc2)cc1
AC50 [1]: 11.2 µM [falling, partial curve, poor fit]

CC(C)(C)n1c(=O)[nH]c2c(c1=O)CCC2
AC50 [2]: 5.01 µM [falling, partial curve, poor fit]

O=c1c2ccccc2nnn1Cc1ccccc1Cl
AC50 [1]: 0.01 µM [falling, full curve, poor fit]
AC50 [2]: 0.0316 µM [falling, full curve, poor fit]

O=C(COC(=O)/C=C/c1ccc(Cl)cc1)Nc1ccccc1
AC50 [1]: 0.0447 µM [falling, full curve, poor fit]
AC50 [2]: 8.91 µM [rising, partial curve, poor fit]

Cc1ccc(Cl)cc1N1CCN(C(=O)COCc2cc(-c3ccc4c(c3)OCO4)on2)CC1
AC50 [1]: 35.5 µM [rising, partial curve]
AC50 [2]: 28.2 µM [rising, partial curve]

Cc1cc(NC(=O)CCC(=O)N(Cc2ccco2)C(C(=O)NC2CCCCC2)c2cccs2)no1 (stereo not drawn)
AC50 [1]: 35.5 µM [rising, single point]

Cc1ccc(S(=O)(=O)N2CCCCC2C(=O)N2CCN(Cc3ccccc3)CC2)cc1 (stereo not drawn)
AC50 [2]: 15.8 µM [rising, single point]

Nc1ccccc1S(=O)(=O)NC1=NCCCCC1
AC50 [2]: 35.5 µM [rising, single point]

CC(=NCc1ccco1)c1c(C(F)(F)F)[nH]n(-c2nc3ccccc3s2)c1=O
AC50 [2]: 0.1 µM [falling, full curve, poor fit]

Cc1ccc2nc(NC(=O)C3CCN(S(=O)(=O)c4cc([N+](=O)[O-])ccc4Cl)CC3)sc2c1
AC50 [1]: 14.1 µM [rising, single point]
AC50 [2]: 31.6 µM [rising, single point]

CN(C)c1ncc2nc(-c3ccc(Cl)cc3)c(=O)n(Cc3cccs3)c2n1
AC50 [1]: 7.08 µM [falling, partial curve]
AC50 [2]: 6.31 µM [falling, partial curve]

CCOC(=O)c1[nH]c2ccc(OC)cc2c1NC(=O)C(C)N1CCC2(CC1)OCCO2 (stereo not drawn)
AC50 [2]: 2.51 µM [falling, partial curve, poor fit]

CCN(CC)CCNC(=O)c1ccc2c(=O)n3nc(Nc4ccccc4)sc3nc2c1
AC50 [2]: 31.6 µM [rising, single point]

Cc1ccc(Nc2ccc(S(=O)(=O)N3CCOCC3)cc2[N+](=O)[O-])c(C)c1
AC50 [1]: 20 µM [rising, partial curve, poor fit]
AC50 [2]: 17.8 µM [rising, partial curve]

Cc1ccn2c(NC3CCCC3)c(-c3ccccn3)nc2c1
AC50 [2]: 14.1 µM [rising, single point]

COc1cccc(-c2csc(N3CCN(C(=O)Nc4ccccc4Cl)CC3)n2)c1
AC50 [1]: 35.5 µM [falling, partial curve]
AC50 [2]: 35.5 µM [falling, single point]

CC(Sc1nc(N)cc(=O)[nH]1)C(=O)Nc1cccc(Cl)c1 (stereo not drawn)
AC50 [1]: 0.00501 µM [falling, full curve, poor fit]

O=C(Nc1ccccc1)c1cccnc1NCCc1ccccc1
AC50 [2]: 0.0126 µM [rising, full curve, poor fit]

COc1cccc(NC(=O)CSC(N)=O)c1
AC50 [2]: 0.00316 µM [falling, full curve, poor fit]

O=[N+]([O-])c1ccc(-c2cnc(NO)nc2)cc1
AC50 [2]: 2.82 µM [rising, partial curve, poor fit]
